Whole data set: some 33,000 sequences, median “E-score (-0.5 to 0.5)” near -0.015, cut for the highest 2% near 0.3. Some of the results follow.
Each sequence was assayed against T1, Abf1 (UniProt P14164) (assay: PBM E-score (8-mer binding enrichment) (E-score (-0.5 to 0.5)); higher = stronger / more preferred TF binding). Conditions: protein concentration: 200 nM; construct: GST-full length.
T1 sequence: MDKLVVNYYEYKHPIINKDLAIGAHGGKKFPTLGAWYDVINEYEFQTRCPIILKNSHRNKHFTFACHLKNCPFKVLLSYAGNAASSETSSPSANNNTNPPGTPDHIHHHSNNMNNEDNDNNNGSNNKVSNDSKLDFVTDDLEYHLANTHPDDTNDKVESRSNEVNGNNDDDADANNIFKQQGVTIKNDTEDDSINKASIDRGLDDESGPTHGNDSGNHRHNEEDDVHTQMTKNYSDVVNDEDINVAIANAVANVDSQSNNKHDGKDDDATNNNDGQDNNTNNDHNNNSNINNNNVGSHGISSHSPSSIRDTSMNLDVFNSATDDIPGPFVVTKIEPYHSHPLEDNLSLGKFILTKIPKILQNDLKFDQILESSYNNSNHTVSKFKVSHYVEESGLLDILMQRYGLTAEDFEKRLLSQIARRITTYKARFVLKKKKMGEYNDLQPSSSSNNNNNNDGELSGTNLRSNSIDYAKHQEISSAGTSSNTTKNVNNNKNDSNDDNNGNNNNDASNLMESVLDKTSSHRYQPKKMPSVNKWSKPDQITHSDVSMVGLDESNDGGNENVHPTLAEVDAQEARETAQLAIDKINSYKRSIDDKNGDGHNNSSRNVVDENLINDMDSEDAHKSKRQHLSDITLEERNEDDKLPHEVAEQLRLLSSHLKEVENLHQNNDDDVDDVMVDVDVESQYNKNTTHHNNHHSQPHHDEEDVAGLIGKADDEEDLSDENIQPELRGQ
How it was run: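 For each ungapped eight-base word taken together with its reverse complement, the Universal PBM Analysis Suite assigned an E-score. Binding data came from GST-tagged yeast transcription factors, applied at about 100-200 nM, on universal all-10-mer Agilent arrays made double-stranded by primer extension. Fluorescent anti-GST marked bound protein, and scans were normalised with masliner.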

| Sequence | PBM E-score |
| --- | --- |
| AACAGCTA | 0.164 |
| CCGCCCTA | -0.167 |
| AATACGAA | 0.337 |
| GTAGAAGA | -0.0045 |
| CATTTAGC | 0.0637 |
| ATTAGAAA | 0.0238 |
| CACCGGGA | -0.182 |
| AGTATACT | -0.253 |
| CACATAAG | -0.1 |
| GCAAAGGC | -0.282 |
| GGAAGACC | -0.183 |
| AACTGATT | -0.2 |
| AGCCAACT | -0.286 |
| GAGCGTAA | 0.1 |
| ACGCCGAT | 0.0427 |
| AAAGTTGG | -0.0391 |
| GACGAGTC | 0.241 |
| CCGTTACG | -0.00175 |
| AGCGTAAC | 0.166 |
| CGCTGCGA | 0.00403 |
| CTTTCCCA | -0.0958 |
| ACGCTCTA | -0.0747 |

| Sequence | PBM E-score |
| --- | --- |
| AAAATGAT | 0.387 |
| TAATGATA | 0.348 |
| GGTGCCAC | -0.0319 |
| CTCCGTCA | 0.11 |
| AGTGGGTC | -0.336 |
| AGCGCAAG | -0.0213 |
| ACGTAACG | -0.034 |
| CTAAGTAA | 0.127 |
| CCTGGCCC | -0.175 |
| CTCAATCA | 0.121 |
| AGGTTGCC | -0.162 |
| AATCTGCT | 0.0219 |
| AGGCACCT | -0.152 |
| GATGTAGA | 0.0771 |
| ATTCGGAC | 0.113 |
| GGCACCAA | -0.144 |
| AAAGCTCG | -0.0874 |
| GTAAATGA | 0.178 |
| GGTCTACA | -0.102 |
| ATCGGTCG | 0.0208 |
| ACTAATAT | 0.218 |
| AACGCAAC | 0.0366 |

| Sequence | PBM E-score |
| --- | --- |
| CGGGACAA | 0.114 |
| AATTACAT | 0.0833 |
| GGTCACTA | 0.281 |
| ATTTGAGG | -0.115 |
| GTTGGTGA | 0.119 |
| CATATGGC | -0.0586 |
| ACATGAAA | 0.0994 |
| CAGATGGC | 0.0969 |
| AATACGCT | -0.0754 |
| AATTCAGT | -0.00766 |
| AAGAACCA | -0.132 |
| CAGGGAAC | -0.0439 |
| GGCTCCGA | -0.117 |
| TGCGACCA | -0.0796 |
| AAATGTGC | -0.0895 |
| AATTAAGG | 0.071 |
| CATTCGAG | -0.0113 |
| TCTCGGAA | 0.0569 |
| CGTGCAGA | 0.197 |
| CCGTGTGA | 0.301 |
| AGCCAAAG | -0.0262 |
| ATTCGGTA | 0.245 |

| Sequence | PBM E-score |
| --- | --- |
| ACGCACGG | 0.196 |
| GACTCATC | -0.047 |
| CAGGTGCC | -0.142 |
| CAACTTGA | -0.0105 |
| ATGGGGGA | -0.342 |
| ACTGAGCA | 0.0487 |
| AAAGAAGT | 0.0495 |
| AGATGGAC | 0.0909 |
| GTCGATAA | 0.0478 |
| TAGGTGCA | -0.15 |
| ACACAGCT | -0.158 |
| CCAACAAA | 0.037 |
| TCATCACA | 0.125 |
| AACGAATT | 0.138 |
| GAAGATTA | 0.0292 |
| GAAGAACA | 0.156 |
| ACAGGAAG | -0.0692 |
| AAACCTAA | 0.127 |
| GTCAAGGA | 0.0311 |
| ATAGCTAG | -0.216 |

5 consecutive entries already listed:

| Sequence | PBM E-score |
| --- | --- |
| CAGGTGCC | -0.142 |
| CAACTTGA | -0.0105 |
| ATGGGGGA | -0.342 |
| ACTGAGCA | 0.0487 |
| AAAGAAGT | 0.0495 |

Reference: the supplement of paper PMC3334620
